{
  "sequences": {"note": "Chains of the proteins cited; added tags and fusions are not shown. Residues count along the entry.", "UniProt O14763, residues 58-184": "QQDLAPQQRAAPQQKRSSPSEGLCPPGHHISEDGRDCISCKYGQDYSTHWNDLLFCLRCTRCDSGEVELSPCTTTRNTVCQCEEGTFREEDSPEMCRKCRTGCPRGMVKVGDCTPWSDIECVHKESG"},
  "source": "paper PMC3605307",
  "key": {"[1]": {"biological_target": "T1, HCMV UL141 (residues 30–279), C-terminal hexa-histidine tag, of the crystallised complex (human cytomegalovirus (HCMV), FIX strain) (UniProt Q6RJQ3)", "T1 sequence": "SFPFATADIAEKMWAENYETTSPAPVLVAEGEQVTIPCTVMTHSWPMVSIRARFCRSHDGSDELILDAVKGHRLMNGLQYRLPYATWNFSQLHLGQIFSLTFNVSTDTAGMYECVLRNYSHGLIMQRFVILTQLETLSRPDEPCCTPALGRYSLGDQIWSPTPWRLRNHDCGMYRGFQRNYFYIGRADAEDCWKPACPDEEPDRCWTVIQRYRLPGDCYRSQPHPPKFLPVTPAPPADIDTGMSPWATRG", "test": "crystal structure; both purified"}, "[2]": {"biological_target": "Human TRAIL-R2 ectodomain (residues 58–184), released from the Fc fusion (human) (UniProt O14763)", "test": "SEC; size-exclusion elution profiles of the purified proteins against marker proteins; both purified"}},
  "note": "No constants are given. Whether binding was seen depends on the method and setting. Some results given as binding are weak or reduced against the parent protein; the word gives no strength. For some assays here: Tags and fused reporters may be left off the sequences shown.",
  "data": [
    {"substance": "Human TRAIL-R2 ectodomain (residues 58–184), released from the Fc fusion (from UniProt O14763 58-184) (domain or fragment)", "values": [
      {"measurement": "binding", "setting": "[1]", "value": "binds"},
      {"measurement": "binding", "setting": "[2]", "value": "no binding"}
    ]}
  ]
}
